In article PMC4405365 one finds binding data, which are given here for three substances.

By UniProt entry, the sequences of proteins in these tests, tags left out. Residues count along the entry.
UniProt Q8BPM0, residues 428-1076: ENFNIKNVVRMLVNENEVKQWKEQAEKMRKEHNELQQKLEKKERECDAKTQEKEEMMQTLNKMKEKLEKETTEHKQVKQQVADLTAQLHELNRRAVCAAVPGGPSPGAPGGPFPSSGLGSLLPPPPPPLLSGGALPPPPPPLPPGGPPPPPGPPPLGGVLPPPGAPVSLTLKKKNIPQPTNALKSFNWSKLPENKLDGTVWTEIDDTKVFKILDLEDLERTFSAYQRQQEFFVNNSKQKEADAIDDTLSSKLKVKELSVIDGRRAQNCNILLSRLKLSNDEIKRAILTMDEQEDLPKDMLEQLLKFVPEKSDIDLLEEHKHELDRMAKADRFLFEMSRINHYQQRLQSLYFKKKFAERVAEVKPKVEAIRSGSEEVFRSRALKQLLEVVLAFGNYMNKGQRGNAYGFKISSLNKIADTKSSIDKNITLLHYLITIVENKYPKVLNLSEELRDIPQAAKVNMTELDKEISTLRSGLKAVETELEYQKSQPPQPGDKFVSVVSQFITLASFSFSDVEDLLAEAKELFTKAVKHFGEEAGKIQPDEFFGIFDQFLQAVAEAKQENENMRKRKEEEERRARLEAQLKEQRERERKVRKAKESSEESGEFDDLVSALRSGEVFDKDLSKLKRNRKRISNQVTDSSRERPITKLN
UniProt O88778: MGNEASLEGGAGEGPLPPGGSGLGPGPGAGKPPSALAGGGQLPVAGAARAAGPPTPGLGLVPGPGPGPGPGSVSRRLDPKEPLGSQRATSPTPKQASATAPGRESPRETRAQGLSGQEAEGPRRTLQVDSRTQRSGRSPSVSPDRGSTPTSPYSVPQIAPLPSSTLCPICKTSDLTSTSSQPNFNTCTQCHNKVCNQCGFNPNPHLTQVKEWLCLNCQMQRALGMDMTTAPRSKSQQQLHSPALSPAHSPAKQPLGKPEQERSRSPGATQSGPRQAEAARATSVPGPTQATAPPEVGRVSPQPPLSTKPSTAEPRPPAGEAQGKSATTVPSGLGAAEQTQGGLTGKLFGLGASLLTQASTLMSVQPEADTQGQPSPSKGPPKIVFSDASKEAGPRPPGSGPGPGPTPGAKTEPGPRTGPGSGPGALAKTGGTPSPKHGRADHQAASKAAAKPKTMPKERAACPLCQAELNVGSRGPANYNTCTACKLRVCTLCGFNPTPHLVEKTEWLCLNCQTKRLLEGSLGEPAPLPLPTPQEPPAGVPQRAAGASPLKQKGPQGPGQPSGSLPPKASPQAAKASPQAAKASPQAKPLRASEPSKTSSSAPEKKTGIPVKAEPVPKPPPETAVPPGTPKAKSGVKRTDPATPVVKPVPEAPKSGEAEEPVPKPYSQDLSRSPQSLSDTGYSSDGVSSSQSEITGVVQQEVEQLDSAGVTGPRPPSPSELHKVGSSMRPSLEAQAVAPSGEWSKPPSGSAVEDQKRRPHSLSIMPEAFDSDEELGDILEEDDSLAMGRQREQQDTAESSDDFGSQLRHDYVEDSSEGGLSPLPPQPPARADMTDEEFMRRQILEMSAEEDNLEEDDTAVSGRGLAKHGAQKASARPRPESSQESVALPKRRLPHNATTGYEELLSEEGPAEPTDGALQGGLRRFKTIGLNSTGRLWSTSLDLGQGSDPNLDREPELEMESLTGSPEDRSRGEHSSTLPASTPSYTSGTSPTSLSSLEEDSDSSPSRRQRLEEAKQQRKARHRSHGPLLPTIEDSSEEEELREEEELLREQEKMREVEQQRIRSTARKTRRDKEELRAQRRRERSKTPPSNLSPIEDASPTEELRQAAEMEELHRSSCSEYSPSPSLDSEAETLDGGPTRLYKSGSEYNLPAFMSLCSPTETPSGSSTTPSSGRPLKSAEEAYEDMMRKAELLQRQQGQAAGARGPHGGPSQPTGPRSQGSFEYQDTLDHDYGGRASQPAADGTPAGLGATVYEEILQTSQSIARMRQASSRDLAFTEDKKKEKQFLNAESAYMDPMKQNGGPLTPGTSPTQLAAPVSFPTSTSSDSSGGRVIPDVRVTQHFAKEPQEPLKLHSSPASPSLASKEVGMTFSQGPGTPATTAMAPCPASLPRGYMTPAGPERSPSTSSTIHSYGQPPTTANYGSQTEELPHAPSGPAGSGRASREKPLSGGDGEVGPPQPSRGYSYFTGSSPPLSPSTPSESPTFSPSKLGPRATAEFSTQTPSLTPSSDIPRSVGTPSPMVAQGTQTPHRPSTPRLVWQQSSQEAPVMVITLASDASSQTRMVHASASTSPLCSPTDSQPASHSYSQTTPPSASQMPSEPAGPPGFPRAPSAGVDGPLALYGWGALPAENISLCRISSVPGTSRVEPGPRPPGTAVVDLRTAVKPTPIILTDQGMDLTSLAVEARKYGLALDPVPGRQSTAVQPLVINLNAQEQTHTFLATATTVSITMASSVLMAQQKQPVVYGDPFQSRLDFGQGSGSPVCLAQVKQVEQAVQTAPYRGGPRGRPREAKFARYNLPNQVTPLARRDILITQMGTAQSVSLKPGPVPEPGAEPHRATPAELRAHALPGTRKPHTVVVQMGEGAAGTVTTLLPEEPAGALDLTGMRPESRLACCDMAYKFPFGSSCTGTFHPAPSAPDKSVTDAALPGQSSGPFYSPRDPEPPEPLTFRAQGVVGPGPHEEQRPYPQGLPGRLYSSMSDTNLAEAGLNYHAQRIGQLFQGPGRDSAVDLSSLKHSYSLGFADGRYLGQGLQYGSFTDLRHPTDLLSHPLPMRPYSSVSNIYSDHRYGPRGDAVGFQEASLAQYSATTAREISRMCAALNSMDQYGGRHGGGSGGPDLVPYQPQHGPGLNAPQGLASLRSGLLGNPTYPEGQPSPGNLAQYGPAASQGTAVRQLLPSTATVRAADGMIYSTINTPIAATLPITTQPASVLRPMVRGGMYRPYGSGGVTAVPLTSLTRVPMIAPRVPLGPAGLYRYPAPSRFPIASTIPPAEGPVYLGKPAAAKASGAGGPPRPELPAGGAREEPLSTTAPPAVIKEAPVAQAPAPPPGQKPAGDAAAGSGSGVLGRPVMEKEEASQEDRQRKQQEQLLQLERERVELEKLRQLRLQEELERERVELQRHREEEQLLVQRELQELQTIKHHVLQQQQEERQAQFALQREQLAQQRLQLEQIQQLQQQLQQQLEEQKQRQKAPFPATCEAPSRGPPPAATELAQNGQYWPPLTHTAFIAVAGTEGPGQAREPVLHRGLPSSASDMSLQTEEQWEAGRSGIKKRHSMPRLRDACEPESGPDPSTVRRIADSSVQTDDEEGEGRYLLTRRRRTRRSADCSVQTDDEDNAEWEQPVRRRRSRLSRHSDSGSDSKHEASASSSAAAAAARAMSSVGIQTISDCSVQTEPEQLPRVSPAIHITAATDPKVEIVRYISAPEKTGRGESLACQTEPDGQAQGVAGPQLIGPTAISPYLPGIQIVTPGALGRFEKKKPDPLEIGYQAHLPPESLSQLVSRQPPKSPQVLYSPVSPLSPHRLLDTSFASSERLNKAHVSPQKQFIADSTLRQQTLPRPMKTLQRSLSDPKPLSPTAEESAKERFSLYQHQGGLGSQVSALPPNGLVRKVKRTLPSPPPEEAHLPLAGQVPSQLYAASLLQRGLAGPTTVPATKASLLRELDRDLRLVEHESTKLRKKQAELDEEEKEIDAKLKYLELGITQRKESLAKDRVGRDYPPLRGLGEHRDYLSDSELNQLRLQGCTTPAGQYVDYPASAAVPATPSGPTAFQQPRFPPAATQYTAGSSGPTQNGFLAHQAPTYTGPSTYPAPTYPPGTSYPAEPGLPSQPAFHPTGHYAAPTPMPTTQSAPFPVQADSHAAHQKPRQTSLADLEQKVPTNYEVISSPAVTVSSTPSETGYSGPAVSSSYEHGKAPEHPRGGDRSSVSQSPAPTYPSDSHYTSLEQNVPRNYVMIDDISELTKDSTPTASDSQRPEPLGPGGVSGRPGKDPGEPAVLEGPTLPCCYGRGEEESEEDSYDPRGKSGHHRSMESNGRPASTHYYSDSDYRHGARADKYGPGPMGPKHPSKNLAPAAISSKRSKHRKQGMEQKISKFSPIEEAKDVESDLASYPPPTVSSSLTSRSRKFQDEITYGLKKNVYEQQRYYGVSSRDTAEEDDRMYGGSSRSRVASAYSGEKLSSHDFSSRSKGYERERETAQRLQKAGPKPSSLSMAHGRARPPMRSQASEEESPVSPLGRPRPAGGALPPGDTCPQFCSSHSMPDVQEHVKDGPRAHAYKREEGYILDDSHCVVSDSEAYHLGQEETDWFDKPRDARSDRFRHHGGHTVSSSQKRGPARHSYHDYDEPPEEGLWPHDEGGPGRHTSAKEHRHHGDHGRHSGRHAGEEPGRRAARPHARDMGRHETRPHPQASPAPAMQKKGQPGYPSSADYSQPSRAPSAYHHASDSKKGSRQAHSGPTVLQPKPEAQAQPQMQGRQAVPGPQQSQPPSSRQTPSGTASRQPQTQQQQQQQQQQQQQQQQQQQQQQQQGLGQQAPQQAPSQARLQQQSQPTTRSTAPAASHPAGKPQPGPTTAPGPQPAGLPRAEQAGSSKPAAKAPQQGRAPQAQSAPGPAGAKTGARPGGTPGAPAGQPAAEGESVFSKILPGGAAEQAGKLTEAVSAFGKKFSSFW
UniProt P07825: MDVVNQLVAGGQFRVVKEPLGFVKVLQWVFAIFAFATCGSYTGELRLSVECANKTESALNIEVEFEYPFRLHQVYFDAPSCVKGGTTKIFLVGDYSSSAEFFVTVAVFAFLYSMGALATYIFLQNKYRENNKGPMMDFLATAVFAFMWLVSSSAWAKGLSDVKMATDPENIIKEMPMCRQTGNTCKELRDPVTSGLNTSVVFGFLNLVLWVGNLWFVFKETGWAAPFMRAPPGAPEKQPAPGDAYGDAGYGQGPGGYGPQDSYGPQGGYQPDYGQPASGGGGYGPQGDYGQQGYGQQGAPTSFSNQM

These are yes or no findings as the source states them, for the method shown. Binding seen in cells or lysates may run through a third protein. Some binding calls cover weakened binding; strength is not graded here. For part of these data: Where a sequence is shown, tags or fusion partners need not be part of it.

In assay [1] the target is T1, EGFP-Pclo_(1980-2553) (UniProt Q9JKS6).
T1 sequence: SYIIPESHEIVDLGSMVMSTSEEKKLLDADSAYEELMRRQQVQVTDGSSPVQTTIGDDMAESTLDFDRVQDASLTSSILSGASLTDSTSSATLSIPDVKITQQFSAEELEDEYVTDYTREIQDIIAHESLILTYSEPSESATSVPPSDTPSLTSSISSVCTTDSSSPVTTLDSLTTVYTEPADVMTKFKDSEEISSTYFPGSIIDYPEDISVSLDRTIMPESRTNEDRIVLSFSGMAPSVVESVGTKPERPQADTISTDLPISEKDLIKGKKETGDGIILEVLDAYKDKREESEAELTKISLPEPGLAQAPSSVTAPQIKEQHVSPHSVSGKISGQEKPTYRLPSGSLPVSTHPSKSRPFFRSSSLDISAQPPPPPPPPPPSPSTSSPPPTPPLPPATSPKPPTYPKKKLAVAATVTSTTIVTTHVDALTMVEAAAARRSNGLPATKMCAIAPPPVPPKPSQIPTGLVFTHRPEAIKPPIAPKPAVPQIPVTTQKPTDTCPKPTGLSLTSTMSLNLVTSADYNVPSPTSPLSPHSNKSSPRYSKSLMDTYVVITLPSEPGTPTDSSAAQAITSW
Kind of assay: co-IP; COS7 cells co-transfected, lysed in 1% Triton X-100 in 1X PBS with protease inhibitors, 4°C; EGFP antibody or Piccolo 1980-2553 antibody with Protein A/G; Western blot. In general terms: A western blot detects proteins with antibodies after separation by electrophoresis.

Assay [2] concerns the target Piccolo (rat (endogenous in P4 rat brain)) (UniProt Q9JKS6). Kind of assay: co-IP; Piccolo precipitated with a rabbit polyclonal antibody against Piccolo residues 1980-2553 and Protein A/G beads from the P2 light membrane fraction of P4 rat brain solubilised in 1x PBS with 1% Triton X-100, 4°C; Western blot; normal rabbit IgG as control.

Consider “Myc-C-Daam1 (from UniProt Q8BPM0 428-1076) (domain or fragment)”, for which the binding entry in assay [1] is “binds”.

On to Bassoon (from UniProt O88778 1-3938), for which the binding result in assay [2] is recorded as “binds”.

Turning to “Synaptophysin (from UniProt P07825 1-307)”, in assay [2], the binding result is “no binding”.
